Assay [1] concerns the target full-length TRKB stably expressed in MG87.TRKB mouse fibroblast cells (UniProt Q63604). Nature of the assay: co-IP; MG87.TRKB cells, transfected with myc-PTPσ or non-transfected; lysed in NP lysis buffer; immunoprecipitated with anti-TRKB antibody and Sepharose, blotted for PTPσ, reblotted for TRKB; MG87.TRKA cells as control of the antibody.
For assay [2], the target named is GFP-tagged full-length TRKB (plasmid HP220GFP-TRKB) (UniProt Q63604). Nature of the assay: ELISA; HEK293T cells transfected with WT or R427A/Y433F TRKB, vehicle or fluoxetine 10 uM for 30 min; TRKB captured with anti-TRKB antibody, bound PTPσ detected with anti-PTPσ antibody.
The target in assay [3] is TRKB carrying Y433F/R427A mutation (UniProt Q63604). Described as above.
Assay [4] has as its target TRKB, endogenous in rat primary cortical neurons (rat (endogenous in primary cortical neurons)) (UniProt Q63604). Nature of the assay: ELISA; rat primary cortical neurons 7 DIV, vehicle or fluoxetine 0.1 and 1 uM for 30 min; TRKB captured on the plate with anti-TRKB antibody, bound PTPσ detected with anti-PTPσ antibody. A general note: ELISA stands for enzyme-linked immunosorbent assay.

Protein sequences, listed by entry. Tags and fused reporters are not part of them. Lines headed by an entry give the natural chain unless they say otherwise; changes in a name come on top. Chains listed by the source or under a name are the forms on record and can include a tag or linker. Residues count along the entry.
TRKB, endogenous in rat primary cortical neurons (rat (endogenous in primary cortical neurons)) (Q63604, residues 32-821): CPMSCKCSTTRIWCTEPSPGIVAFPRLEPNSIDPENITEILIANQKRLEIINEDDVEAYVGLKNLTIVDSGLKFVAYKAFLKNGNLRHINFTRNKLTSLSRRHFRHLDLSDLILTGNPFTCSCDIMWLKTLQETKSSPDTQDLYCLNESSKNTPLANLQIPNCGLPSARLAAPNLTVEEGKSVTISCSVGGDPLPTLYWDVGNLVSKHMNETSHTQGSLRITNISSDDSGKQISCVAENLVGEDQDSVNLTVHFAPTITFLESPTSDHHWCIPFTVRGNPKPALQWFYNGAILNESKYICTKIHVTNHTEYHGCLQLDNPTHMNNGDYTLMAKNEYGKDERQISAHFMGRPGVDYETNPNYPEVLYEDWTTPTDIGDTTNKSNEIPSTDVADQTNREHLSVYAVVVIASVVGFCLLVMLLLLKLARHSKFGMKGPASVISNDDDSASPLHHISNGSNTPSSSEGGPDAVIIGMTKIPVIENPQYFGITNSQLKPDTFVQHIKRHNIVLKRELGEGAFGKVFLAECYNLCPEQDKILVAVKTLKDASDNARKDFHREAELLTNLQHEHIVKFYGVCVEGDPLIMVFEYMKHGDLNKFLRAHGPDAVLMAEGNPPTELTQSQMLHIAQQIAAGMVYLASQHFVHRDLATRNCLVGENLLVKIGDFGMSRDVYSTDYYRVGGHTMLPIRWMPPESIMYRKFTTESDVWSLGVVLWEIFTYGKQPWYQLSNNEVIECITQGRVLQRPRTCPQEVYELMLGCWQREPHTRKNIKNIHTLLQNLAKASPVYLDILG
TRKB carrying Y433F/R427A mutation (Q63604, form named): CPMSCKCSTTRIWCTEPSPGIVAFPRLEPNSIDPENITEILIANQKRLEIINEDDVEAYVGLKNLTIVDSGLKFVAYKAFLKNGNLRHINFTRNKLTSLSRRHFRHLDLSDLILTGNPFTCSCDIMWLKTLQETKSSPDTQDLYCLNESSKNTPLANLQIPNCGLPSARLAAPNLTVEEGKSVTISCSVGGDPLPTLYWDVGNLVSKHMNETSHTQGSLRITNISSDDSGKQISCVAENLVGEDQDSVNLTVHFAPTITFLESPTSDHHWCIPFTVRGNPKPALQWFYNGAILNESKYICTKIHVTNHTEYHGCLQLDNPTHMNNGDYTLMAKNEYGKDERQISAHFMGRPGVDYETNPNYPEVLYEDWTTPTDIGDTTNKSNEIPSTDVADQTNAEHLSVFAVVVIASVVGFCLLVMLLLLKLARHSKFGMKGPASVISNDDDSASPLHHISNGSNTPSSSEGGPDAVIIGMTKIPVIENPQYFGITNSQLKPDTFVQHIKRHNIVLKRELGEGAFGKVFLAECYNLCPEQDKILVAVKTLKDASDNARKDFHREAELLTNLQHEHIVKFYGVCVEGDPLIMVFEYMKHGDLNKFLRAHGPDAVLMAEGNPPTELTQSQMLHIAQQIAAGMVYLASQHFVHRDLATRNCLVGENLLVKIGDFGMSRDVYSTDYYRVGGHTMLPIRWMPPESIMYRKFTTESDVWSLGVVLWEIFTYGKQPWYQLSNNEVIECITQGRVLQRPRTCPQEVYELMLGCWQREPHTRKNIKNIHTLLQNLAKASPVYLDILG
PTPσ, endogenous in rat primary cortical neurons (Q64605, residues 30-1907): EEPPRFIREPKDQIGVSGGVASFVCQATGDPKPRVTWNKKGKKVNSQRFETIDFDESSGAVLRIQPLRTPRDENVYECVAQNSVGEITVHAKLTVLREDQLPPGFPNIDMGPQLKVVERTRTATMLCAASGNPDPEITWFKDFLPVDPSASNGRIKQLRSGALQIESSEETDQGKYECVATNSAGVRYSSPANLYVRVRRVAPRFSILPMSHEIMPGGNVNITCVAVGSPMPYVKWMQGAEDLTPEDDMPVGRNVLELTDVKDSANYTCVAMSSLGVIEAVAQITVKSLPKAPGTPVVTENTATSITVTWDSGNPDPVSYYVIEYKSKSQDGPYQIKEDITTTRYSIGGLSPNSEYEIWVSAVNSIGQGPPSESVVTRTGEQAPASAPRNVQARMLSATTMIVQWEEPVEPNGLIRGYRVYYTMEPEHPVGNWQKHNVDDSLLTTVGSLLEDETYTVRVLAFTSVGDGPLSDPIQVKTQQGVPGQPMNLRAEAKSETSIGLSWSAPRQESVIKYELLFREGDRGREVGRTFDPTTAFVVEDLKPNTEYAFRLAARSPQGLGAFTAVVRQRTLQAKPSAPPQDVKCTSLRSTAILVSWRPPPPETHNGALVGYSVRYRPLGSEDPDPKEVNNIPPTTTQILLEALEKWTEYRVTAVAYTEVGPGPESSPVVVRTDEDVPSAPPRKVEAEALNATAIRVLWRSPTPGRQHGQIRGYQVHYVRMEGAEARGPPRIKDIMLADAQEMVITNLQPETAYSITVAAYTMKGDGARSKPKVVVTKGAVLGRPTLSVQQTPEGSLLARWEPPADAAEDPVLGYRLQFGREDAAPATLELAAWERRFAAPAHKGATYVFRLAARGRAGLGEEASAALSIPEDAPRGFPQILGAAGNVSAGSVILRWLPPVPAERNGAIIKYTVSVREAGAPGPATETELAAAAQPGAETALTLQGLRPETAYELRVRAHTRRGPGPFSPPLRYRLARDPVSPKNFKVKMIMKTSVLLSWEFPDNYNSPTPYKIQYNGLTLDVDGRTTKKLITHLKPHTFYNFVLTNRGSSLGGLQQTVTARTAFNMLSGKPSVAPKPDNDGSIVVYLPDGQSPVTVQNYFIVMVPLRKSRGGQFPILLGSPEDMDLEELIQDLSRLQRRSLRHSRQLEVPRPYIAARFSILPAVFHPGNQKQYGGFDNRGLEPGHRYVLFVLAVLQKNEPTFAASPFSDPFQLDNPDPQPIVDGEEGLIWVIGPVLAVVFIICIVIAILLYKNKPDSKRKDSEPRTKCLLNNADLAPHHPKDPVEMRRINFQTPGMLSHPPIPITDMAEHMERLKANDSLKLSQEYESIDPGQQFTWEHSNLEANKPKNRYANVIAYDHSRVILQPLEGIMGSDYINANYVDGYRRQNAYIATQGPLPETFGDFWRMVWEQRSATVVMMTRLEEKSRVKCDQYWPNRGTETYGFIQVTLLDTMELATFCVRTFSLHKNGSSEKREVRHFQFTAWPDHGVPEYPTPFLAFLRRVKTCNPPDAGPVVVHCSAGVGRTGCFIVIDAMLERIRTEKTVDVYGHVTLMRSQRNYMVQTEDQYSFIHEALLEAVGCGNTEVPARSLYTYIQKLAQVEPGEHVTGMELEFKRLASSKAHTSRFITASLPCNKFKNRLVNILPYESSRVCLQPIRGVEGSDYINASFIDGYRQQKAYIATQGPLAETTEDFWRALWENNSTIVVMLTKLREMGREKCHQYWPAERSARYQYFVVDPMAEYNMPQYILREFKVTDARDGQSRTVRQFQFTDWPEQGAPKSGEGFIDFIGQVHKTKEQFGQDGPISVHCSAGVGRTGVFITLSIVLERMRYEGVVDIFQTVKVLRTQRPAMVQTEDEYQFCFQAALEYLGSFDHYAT
PTPσ Myc-DDK-tagged (OriGene ORF plasmid RR209636) (Q64605-2, form named): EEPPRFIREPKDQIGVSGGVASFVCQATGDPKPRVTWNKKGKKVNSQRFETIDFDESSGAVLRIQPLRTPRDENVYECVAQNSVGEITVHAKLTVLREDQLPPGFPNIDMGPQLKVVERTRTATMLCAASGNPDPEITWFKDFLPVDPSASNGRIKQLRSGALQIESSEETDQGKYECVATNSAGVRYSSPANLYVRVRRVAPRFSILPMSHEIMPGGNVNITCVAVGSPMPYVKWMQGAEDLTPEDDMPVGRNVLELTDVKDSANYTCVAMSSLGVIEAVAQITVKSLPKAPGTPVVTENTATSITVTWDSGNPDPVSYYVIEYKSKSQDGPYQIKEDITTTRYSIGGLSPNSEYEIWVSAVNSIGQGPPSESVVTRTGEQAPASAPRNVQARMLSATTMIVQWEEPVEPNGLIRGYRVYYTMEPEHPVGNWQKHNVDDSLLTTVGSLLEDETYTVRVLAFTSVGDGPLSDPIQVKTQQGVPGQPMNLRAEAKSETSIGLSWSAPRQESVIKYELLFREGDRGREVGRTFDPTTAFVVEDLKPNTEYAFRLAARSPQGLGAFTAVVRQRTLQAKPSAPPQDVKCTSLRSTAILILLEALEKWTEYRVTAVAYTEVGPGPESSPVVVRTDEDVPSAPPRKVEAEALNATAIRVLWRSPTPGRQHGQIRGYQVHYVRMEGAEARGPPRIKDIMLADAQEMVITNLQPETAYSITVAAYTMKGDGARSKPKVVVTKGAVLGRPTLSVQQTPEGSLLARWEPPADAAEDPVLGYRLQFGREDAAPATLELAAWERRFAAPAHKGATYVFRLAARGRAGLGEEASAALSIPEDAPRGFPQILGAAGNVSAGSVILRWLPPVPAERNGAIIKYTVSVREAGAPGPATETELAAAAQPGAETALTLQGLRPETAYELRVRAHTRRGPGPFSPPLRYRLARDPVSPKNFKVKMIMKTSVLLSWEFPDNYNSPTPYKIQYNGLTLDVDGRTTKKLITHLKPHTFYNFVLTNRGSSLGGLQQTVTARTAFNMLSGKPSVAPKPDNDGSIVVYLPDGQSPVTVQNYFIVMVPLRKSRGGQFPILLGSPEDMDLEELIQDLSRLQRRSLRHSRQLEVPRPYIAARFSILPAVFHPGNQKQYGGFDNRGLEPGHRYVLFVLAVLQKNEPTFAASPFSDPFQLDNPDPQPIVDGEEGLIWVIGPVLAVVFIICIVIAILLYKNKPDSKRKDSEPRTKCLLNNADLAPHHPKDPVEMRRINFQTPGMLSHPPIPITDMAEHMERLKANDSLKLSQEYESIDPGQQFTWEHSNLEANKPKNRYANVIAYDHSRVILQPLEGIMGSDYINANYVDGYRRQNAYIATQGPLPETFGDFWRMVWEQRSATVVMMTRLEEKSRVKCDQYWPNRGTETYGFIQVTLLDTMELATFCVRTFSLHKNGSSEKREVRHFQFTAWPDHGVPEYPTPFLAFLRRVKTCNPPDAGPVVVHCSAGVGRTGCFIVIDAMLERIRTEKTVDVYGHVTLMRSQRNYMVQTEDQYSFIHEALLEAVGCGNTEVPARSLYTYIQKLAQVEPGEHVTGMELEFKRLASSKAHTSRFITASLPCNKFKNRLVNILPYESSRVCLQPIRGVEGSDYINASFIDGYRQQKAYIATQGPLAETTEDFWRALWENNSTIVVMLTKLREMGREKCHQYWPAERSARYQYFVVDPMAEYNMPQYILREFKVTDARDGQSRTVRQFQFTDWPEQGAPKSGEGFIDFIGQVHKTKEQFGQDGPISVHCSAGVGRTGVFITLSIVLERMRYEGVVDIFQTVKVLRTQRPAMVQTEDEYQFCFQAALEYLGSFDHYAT

Experimental findings from article PMC7880295 are described below.

No constants are given. Whether binding was seen depends on the method and setting. For some of these results: Binding seen in cells or lysates may run through a third protein. Some results given as binding are weak or reduced against the parent protein; the word gives no strength.

In the case of “PTPσ Myc-DDK-tagged (OriGene ORF plasmid RR209636) (from UniProt Q64605-2 30-1863) (receptor)”, in assay [1], the binding entry is “binds”.
With “PTPσ in HEK293T cells (from UniProt Q13332 30-1948) (receptor)”, the binding result in assay [2] and in assay [3] was “binds” throughout.
Take “PTPσ, endogenous in rat primary cortical neurons (from UniProt Q64605 30-1907) (receptor)”: the binding entry in assay [4] is listed as “binds”.
